Selectivity ratio data for one compound are collected here from patent publication US4447439A, “2-Cyclic amino-2-(1,2-benzisoxazol-3-yl)acetic acid ester derivatives, process for the preparation thereof and composition containing the same” (priority 1981, dated 1984).

The data set can be described thus: Safety index (ED50 of mydriatic activity / ID50 of Anti-SGM). Also on record: species or system male Wistar strain rats. As to conditions: rat, in vivo, po; ED50 of mydriatic activity divided by ID50 of Anti-SGM. The protocol:
This effect was examined using male Wistar strain rats, weighing about 250 g, with chronically implanted strain gauge force transducer as mentioned in the experiment (1). The rats were usually allowed to stand for 3-5 days for recovery from the surgery and fasted for 18 hours before experiment. Then, spontaneous gastric motility in conscious rats were recorded and the sum of amplitude of each contraction was calculated every 15 minutes. Inhibitory effect of test compound by oral administration was expressed as a percent inhibition of initial spontaneous motility. ID50 value, i.e., the dose required for 50% inhibition of spontaneous motility, was determined from regression line calculated by the maximum percent inhibition at each dose level.
*This index is determined by dividing ED50 of mydriatic activity by […]

Structures can show the parent of a compound that is named as a salt.

Take `CN1[C@@H]2CC[C@H]1C[C@@H](OC(=O)C(CO)c1ccccc1)C2` (stereo partly shown) [Atropine sulfate, atropine sulfate, reference compound]: the selectivity ratio stood at 2.
